Our source for the binding values is article PMC4203807.

No constants are given. Whether binding was seen depends on the method and setting. For some assays here: A result given as binding can be weak or reduced; the word gives no strength. Where a sequence is shown, tags or fusion partners need not be part of it.

Assay [1] addresses T1, GST-AP180 C1 (isolated ∼16 kDa C-terminal sub-domain, 730–896) (mouse) (UniProt Q61548).
T1 sequence: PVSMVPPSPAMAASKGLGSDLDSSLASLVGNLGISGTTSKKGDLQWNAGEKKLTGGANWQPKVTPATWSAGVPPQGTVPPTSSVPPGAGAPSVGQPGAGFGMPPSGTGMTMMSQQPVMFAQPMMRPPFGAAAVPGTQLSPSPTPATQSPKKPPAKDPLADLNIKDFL
Kind of assay: pull-down; GST-AP180 sequences (∼10 µg) on GSH-Sepharose beads as bait; 2 µg purified bovine brain clathrin as the only other protein; same lysis buffer (1% Triton X-100); 4°C, 4 h; Western blot for CHC; both purified. For orientation: In western blotting, separated proteins are transferred to a membrane and probed.

Assay [2] has as its target T2, GST-AP180 C½ (493–896) (mouse) (UniProt Q61548).
T2 sequence: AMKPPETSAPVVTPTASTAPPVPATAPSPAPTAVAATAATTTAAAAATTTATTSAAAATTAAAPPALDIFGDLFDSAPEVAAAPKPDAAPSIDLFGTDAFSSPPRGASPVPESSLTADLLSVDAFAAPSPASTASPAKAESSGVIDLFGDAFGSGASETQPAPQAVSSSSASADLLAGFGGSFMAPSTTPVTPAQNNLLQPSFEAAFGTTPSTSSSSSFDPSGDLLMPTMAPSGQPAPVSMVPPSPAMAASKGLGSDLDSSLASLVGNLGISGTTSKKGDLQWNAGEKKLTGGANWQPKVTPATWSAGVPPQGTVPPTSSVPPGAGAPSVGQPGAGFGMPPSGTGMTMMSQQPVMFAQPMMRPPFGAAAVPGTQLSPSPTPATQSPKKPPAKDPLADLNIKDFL
The description is as above.

The target in assay [3] is T3, GST-AP180 FL (codon optimised, de-tagged: no 6His) (mouse) (UniProt Q61548).
T3 sequence: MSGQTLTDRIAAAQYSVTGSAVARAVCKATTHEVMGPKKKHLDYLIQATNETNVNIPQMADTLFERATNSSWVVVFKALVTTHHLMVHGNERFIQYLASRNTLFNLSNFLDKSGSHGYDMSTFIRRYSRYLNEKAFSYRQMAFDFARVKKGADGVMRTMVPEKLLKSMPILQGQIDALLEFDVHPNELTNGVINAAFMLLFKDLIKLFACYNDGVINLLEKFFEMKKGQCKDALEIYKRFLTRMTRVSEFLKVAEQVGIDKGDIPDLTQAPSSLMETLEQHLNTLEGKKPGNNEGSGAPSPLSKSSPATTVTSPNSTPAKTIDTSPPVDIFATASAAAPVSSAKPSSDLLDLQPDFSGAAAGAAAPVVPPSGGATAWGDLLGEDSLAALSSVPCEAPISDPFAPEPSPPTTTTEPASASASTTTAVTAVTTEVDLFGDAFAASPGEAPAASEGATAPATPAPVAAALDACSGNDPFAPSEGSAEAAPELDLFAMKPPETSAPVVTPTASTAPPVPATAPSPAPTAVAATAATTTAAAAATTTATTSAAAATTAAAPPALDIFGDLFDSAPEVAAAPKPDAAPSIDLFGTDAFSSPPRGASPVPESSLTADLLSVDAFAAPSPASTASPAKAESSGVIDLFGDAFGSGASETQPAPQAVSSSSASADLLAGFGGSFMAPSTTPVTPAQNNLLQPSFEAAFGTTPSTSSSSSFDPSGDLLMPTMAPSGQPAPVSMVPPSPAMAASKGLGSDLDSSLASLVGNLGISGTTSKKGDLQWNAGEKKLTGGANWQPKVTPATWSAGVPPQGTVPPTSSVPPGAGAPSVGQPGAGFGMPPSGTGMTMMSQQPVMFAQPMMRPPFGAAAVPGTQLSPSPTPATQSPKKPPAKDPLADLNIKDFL
The assay is described as above.

The target in assay [4] is T4, GST-AP180 FL-6His (mouse) (UniProt Q61548).
T4 sequence: T3 sequence
Described as above.

Assay [5] addresses T5, GST-AP180 FL-T2 (mouse) (UniProt Q61548).
T5 sequence: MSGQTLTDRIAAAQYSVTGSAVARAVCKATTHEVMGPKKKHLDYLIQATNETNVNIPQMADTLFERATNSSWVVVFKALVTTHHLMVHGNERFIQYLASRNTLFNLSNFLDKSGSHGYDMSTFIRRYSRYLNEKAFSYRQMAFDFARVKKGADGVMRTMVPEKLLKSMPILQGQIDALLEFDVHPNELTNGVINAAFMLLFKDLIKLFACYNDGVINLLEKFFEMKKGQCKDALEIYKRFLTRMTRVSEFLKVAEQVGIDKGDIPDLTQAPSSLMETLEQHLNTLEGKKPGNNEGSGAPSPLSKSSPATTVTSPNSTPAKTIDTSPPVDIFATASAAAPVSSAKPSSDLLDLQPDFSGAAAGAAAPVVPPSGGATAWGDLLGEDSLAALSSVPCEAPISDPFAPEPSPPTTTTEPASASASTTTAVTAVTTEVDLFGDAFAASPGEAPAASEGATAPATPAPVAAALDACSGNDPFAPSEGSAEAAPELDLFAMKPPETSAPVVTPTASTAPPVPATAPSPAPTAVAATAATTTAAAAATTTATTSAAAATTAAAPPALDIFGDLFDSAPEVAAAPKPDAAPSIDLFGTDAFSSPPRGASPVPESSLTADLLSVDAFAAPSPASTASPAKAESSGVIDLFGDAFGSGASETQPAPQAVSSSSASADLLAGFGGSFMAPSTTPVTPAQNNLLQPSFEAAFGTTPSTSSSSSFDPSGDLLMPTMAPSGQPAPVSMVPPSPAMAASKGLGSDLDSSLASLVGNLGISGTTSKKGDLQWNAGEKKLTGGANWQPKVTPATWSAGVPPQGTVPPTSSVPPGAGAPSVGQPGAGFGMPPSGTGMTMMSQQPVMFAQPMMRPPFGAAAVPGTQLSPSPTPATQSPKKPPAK
The description is as above.

The target in assay [6] is T6, GST-AP180 M1 (isolated CLAP sub-domain, 287–730) (mouse) (UniProt Q61548).
T6 sequence: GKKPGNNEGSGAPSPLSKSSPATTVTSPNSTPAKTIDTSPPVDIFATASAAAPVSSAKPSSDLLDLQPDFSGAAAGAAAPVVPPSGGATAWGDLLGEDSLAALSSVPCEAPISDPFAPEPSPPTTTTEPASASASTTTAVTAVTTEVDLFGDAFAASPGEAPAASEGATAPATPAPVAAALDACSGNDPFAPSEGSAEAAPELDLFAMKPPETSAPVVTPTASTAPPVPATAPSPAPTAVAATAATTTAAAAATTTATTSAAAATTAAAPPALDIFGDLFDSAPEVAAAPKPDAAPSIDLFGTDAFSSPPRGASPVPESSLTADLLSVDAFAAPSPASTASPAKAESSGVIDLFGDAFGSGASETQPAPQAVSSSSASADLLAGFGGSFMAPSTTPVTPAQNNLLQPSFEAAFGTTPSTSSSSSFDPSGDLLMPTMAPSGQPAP
The assay is described as above.

The target in assay [7] is T7, GST-AP180 FL-T3 (mouse) (UniProt Q61548).
T7 sequence: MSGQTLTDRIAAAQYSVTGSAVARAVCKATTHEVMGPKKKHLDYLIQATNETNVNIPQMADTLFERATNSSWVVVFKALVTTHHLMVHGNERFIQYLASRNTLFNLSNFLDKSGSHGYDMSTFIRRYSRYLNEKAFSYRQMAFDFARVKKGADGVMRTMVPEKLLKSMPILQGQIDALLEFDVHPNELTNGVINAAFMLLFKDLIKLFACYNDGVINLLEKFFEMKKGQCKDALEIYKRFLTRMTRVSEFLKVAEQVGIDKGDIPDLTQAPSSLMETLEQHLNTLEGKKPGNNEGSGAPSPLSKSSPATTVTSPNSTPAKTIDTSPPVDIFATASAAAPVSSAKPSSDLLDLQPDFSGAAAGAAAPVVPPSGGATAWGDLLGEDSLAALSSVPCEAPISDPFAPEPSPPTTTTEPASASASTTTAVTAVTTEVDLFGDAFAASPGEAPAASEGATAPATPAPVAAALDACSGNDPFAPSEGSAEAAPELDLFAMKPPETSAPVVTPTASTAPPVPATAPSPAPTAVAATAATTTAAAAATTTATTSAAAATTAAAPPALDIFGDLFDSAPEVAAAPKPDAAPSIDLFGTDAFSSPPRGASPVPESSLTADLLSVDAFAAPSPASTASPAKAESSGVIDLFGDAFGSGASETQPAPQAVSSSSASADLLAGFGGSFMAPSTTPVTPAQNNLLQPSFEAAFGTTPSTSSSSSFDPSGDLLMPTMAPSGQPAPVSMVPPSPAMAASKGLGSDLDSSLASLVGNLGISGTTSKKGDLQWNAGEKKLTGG
Kind of assay: condition: 2 µg of purified clathrin; ∼10 µg of bead-bound protein; pull-down; GST-AP180 sequences (∼10 µg) on GSH-Sepharose beads as bait; 2 µg purified bovine brain clathrin as the only other protein; same lysis buffer (1% Triton X-100); 4°C, 4 h; Western blot for CHC; both purified.

Assay [8] addresses T8, GST-AP180 N½ (1–530) (mouse) (UniProt Q61548).
T8 sequence: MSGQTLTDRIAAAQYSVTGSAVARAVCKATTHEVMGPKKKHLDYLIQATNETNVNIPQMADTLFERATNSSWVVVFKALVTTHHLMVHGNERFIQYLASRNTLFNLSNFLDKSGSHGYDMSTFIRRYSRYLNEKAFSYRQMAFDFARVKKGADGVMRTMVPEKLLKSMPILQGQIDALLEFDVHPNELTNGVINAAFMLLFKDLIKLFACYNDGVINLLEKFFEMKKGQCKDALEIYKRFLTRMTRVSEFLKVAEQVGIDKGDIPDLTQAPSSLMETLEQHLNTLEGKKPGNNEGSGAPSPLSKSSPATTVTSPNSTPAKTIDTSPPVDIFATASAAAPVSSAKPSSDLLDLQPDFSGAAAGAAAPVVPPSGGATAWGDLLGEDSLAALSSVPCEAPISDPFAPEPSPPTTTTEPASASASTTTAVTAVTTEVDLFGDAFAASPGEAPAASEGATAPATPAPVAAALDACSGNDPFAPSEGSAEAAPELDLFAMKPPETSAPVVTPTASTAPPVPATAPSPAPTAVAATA
The assay is described as above.

As for “purified clathrin from bovine brain (complex)”, the binding entry in assay [1] is given as “binds weakly”; in assay [2], “binds”; in assay [3], “binds”; in assay [4], “binds”; in assay [5] it was “binds”; in assay [6], “binds weakly”. Moreover, the binding entry in assay [7] and in assay [8] was “no binding” in each case.
